Data reported in PubChem BioAssay AID2685 (National Center for Advancing Translational Sciences (NCATS), 2010).
Some of the results follow. Further columns of the screen follow, without active or inactive calls. The list favours compounds with an active or inconclusive main result. Words in brackets tell the shape of the fitted curve; partial curves, single points and poor fits give uncertain potencies.

Assay: qHTS Assay for Lipid Storage Modulators in Drosophila S3 Cells;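 on cell number change: cells counted by Cell Tracker Red CMTPX staining in the red channel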
Conditions: BODIPY lipid droplet fluorescence, 18-24 h; for cell number change: measured here: cell count max response, cells fed with added oleic acid
Summary of the method: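 Laser-scanning cytometry quantifies lipid droplet accumulation (500–530 nm total intensity; droplet/cell object ratio) in oleic acid-fed (400 uM added) Drosophila S3 cells treated with a concentration series. 20 uM Triacsin C defined 100% inhibition.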

[1] = measured here: lipid fluorescence (Fed channel) AC50, cells fed with added oleic acid
[2] = measured here: cell number channel AC50, cells fed with added oleic acid

Structure (SMILES)	cell number change	AC50 [1]	AC50 [2]
O=C1NC2(CCCCC2)C(=O)N1/N=C/c1ccccc1Br	9.04%		
CC(C)CNS(=O)(=O)c1ccc(S(=O)(=O)N2CCN(C3CCCC3)CC2)cc1	5.41%	6.51 µM [rising, single point]	
O=C1C=C(N2CCOCC2)c2ccccc2C1=O		1.3 µM [falling, full curve]	
CN(Cc1ccccc1)C(=C(Cl)Cl)/C(=C1/NCCN1C)[N+](=O)[O-]	-46.1%	29.1 µM [falling, single point]	16.4 µM [falling, single point]
CC(=O)Nc1ccc(-c2nnn(CC(=O)c3ccccc3)n2)cc1Cl	31.6%		25.9 µM [rising, single point]
C/C(=N\NC(=S)NC1CCCCC1)c1ccccc1	-4.03%	32.6 µM [rising, single point]	
O=C1CCC/C1=C\c1ccccc1	-17%	1.84 µM [falling, partial curve]	
COC(=O)C1(O)CC(C(C)C)=NN1C(=O)c1ccccc1 (stereo unspecified)	10.4%		0.731 µM [rising, partial curve, poor fit]
Cc1ccc(CNc2nc3ccccc3n3nnnc23)cc1	-4.8%	0.184 µM [rising, full curve, poor fit]	
Cc1cccc(N(C(=O)CNC(=O)c2ccco2)C(C(=O)NC2CCCCC2)c2cccnc2)c1 (stereo unspecified)	1.3%		
O=C(N/N=C/c1c[nH]c2ccccc12)c1ccncc1	-40.3%		0.58 µM [falling, full curve]
NS(=O)(=O)c1cc(C(=O)Nc2ccc3c(c2)OCCCO3)ccc1Cl	-18.4%		
CCOc1cccc(/C=C/c2ccc3cccc(O)c3n2)c1O	-17.2%	32.6 µM [falling, single point]	
Cc1cc(C)cc(OCC(O)CN2CCN(C(=O)c3ccco3)CC2)c1 (stereo unspecified)	-2.78%		
O=C(CCCN1C(=O)NC2(CCCC2)C1=O)N1CCN(S(=O)(=O)c2ccccc2)CC1	-13.5%	0.00461 µM [falling, full curve, poor fit]	
CC(Oc1ccc(Cl)cc1Cl)C(=O)NC1=NN(c2ccccc2)C(=O)C1 (stereo unspecified)	-4.69%	23.1 µM [falling, partial curve]	
COc1ccc(CN(CC(=O)NCC2CCCO2)C(=O)CNS(=O)(=O)c2ccccc2)cc1 (stereo unspecified)	-8.57%		
CC(C)(C)NCC(O)Cn1cc(C=O)c2ccccc21 (stereo unspecified)	-11.4%	0.116 µM [falling, full curve, poor fit]	0.082 µM [falling, full curve, poor fit]
CSc1cccc(NC(=O)CCC(=O)O)c1	-35.1%	32.6 µM [falling, single point]	29.1 µM [falling, single point]
O=C(NC(=S)Nc1ccccc1N1CCCC1)c1ccccc1Br	35%	2.91 µM [falling, partial curve]	29.1 µM [rising, single point]

Single entries from the entries so far.
`CSc1cccc(NC(=O)CCC(=O)O)c1` – AC50 [1]: 32.6 µM [falling, single point]
`O=C1CCC/C1=C\c1ccccc1` – cell number change: -17%

(further entries)

Structure (SMILES)	cell number change	AC50 [1]	AC50 [2]
CC(=O)Nc1sc2c(c1C#N)CCCC2	0.129%	25.9 µM [rising, single point]	
COC(=O)c1c(NC(=O)CCc2ccc(C)o2)sc(C)c1C	-0.811%	2.06 µM [rising, partial curve]	
CC(C)N(Cc1ccccc1)C(=O)CCc1ccccc1	-1.92%		0.164 µM [falling, partial curve, poor fit]
CS/C(N)=N/S(=O)(=O)c1ccc(NC(C)=O)cc1	-17.3%	0.13 µM [falling, full curve, poor fit]	
O=C(CCc1ccccc1)Nc1ncc2c(n1)CCCC2=O	2.99%	0.206 µM [rising, full curve]	
CC1CCCN(C(=O)CCc2ccccc2)C1 (stereo unspecified)	3.84%	1.3 µM [rising, partial curve]	
N/C(=N\OC(=O)/C=C/c1ccccc1Cl)c1ccncc1			6.51 µM [rising, single point]
COc1ccc(N2C(=O)C(Cl)=C(N3CCCC(C)C3)C2=O)cc1 (stereo unspecified)	3.32%	1.3 µM [rising, full curve, poor fit]	
O=C(COC(=O)/C=C/c1cccc(C(F)(F)F)c1)NCc1ccco1		4.11 µM [rising, full curve, poor fit]	
O=C(N/N=C\c1ccc([N+](=O)[O-])o1)c1cncc(Br)c1	-30.7%	29.1 µM [falling, single point]	1.64 µM [falling, partial curve, poor fit]
CCN1C(=O)CSC1=Nc1ccc(Cl)c(Cl)c1	-28%	20.6 µM [falling, single point]	
CCc1nc(SCC(=O)Nc2cccc3ccccc23)[nH]c(=O)c1C	-10.9%		
COc1ccc(-c2cn[nH]c2-c2ccc(OCc3ccc([N+](=O)[O-])cc3)cc2O)cc1	-57.9%	16.4 µM [falling, partial curve]	16.4 µM [falling, single point]
O=C1C2C3C=CC(C4CC34)C2C(=O)N1/N=C/c1ccc([N+](=O)[O-])s1 (stereo unspecified)	32.7%		0.92 µM [rising, full curve]
O=C1/C(=C/c2cccs2)CCc2ccccc21	-0.354%		
Cc1ccc2ncc(S(=O)(=O)c3ccccc3)c(N3CCCCC3C)c2c1 (stereo unspecified)	-5.69%	9.2 µM [falling, partial curve]	
CCS(=O)(=O)N1CCN(Cc2ccncc2)CC1	-24.8%	1.16 µM [falling, full curve]	
O=C(CCCc1c[nH]c2ccccc12)N1CCCCCC1	-13.7%	0.00517 µM [falling, full curve, poor fit]	
c1cncc(Nc2nc(-c3cccs3)cs2)c1		6.51 µM [rising, single point]	6.51 µM [rising, single point]
CCc1nc(NCCN)c(C#N)c2c1CSC(C)(C)C2	99.2%		29.1 µM [rising, single point]
